The structures appear in SMILES notation. Structures can show the parent of a compound that is named as a salt.

This assay concerns MTT (mouse pheochromocytoma). Put plainly: IC50 of cell viability (ATP content). The following applies: (24 or 48 h). An outline of the steps:
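Library compounds were tested at 8 final concentrations (0.5 nM to 46 µM) on MTT mouse pheochromocytoma cells for 24 or 48 hrs, with readout by CellTiter-Glo ATP luminescence. Signals were normalised with positive-control wells at 100% and DMSO wells at 0%. IC50 values were obtained by a four-parameter logistic fit.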
Regarding `CCC(C)C(C(=O)OCC[N+](C)(CC)CC)c1ccccc1` (stereo not drawn), the “IC50 of cell viability” value is > 46 µM.

On to `CN1[C@@H]2CC[C@H]1CC(OC(=O)[C@@H](O)c1ccccc1)C2` (stereo partly drawn) [HOMATROPINE], for which the “IC50 of cell viability” value is > 46 µM.

On to `CN1[C@@H]2CC[C@@H]1CC(OC(=O)[C@@H](O)c1ccccc1)C2` (stereo partly drawn) [Homatropine hydrobromide (R,S)], for which the “IC50 of cell viability” value was > 46 µM.

The values above are taken from the supplement of paper PMC3974653.
